In paper PMC4851370, “The N-Terminus of the Floral Arabidopsis TGA Transcription Factor PERIANTHIA Mediates Redox-Sensitive DNA-Binding”:
Numbering of substitutions follows the chain as printed. The exact form of at least one protein or probe is not confirmed. For some assays here: The comparison behind a weaker result is the experiment's own reference, which may not be listed here. At least one verdict was read from the data and is not stated in words by the source. Protein sequences can lack the tags named with them.

Legend:
Assay in all cases: EMSA
[1] = biological target: T1, PANC68S (Arabidopsis thaliana) (UniProt Q9SX27); settings: with or without 0.9 or 20 mM DTT or 2 mM diamide, 30 min in the dark before probe addition, protein translated in vitro, residues 1-452, label: 5' 32P
T1 sequence (looked up): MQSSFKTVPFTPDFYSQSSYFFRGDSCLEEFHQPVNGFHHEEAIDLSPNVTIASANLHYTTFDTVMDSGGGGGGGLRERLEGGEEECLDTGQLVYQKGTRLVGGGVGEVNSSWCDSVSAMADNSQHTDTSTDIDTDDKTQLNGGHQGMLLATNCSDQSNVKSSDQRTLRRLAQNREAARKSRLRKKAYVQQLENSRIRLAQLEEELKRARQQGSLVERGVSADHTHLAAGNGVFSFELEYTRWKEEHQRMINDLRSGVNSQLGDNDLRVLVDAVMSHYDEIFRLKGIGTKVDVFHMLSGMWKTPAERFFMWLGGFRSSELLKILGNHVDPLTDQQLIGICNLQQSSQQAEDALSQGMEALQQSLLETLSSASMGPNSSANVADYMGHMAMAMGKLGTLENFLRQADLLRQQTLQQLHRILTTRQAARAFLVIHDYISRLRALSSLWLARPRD

[2] = biological target: T2, PANC114S (Arabidopsis thaliana) (UniProt Q9SX27); settings: with or without 0.9 or 20 mM DTT or 2 mM diamide, 30 min in the dark before probe addition, protein translated in vitro, residues 1-452, label: 5' 32P
T2 sequence (looked up): T1 sequence (looked up) with S68C, C114S

[3] = biological target: T3, PANC27SC114SC154SC340S (Arabidopsis thaliana) (UniProt Q9SX27); settings: with or without 0.9 or 20 mM DTT or 2 mM diamide, 30 min in the dark before probe addition, protein translated in vitro, residues 1-452, label: 5' 32P
T3 sequence (looked up): T1 sequence (looked up) with C27S, S68C, C114S, C154S, C340S

[4] = biological target: T4, PANC27S (Arabidopsis thaliana) (UniProt Q9SX27); settings: with or without 0.9 or 20 mM DTT or 2 mM diamide, 30 min in the dark before probe addition, protein translated in vitro, residues 1-452, label: 5' 32P
T4 sequence (looked up): T1 sequence (looked up) with C27S, S68C

[5] = biological target: T5, PANC27SC68SC87SC114SC154SC340S (PAN6xCysmut) (Arabidopsis thaliana) (UniProt Q9SX27); settings: 0.9 mM DTT; with or without 0.9 or 20 mM DTT or 2 mM diamide, 30 min in the dark before probe addition; protein translated in vitro; residues 1-452; label: 5' 32P
T5 sequence (looked up): T1 sequence (looked up) with C27S, C87S, C114S, C154S, C340S

[6] = biological target: T6, PANC27SC68SC87S (Arabidopsis thaliana) (UniProt Q9SX27); settings: with or without 0.9 or 20 mM DTT or 2 mM diamide, 30 min in the dark before probe addition, protein translated in vitro, residues 1-452, label: 5' 32P
T6 sequence (looked up): T1 sequence (looked up) with C27S, C87S

AAGAATCTTTGATCACGTCATCACTCAGATATT (double strand)
binding result ([1]; 0.9 mM DTT): binds
binding result ([1]; 2 mM diamide): binds more weakly
binding result ([2]; 0.9 mM DTT): binds
binding result ([2]; 2 mM diamide): binds more weakly
binding result ([3]; 0.9 mM DTT): binds
binding result ([3]; 2 mM diamide, weak decrease): binds more weakly
binding result ([4]; 0.9 mM DTT): binds
binding result ([4]; 2 mM diamide): binds more weakly
binding result [5]: binds
binding result ([6]; 0.9 mM DTT): binds
binding result ([6]; 2 mM diamide): binds more weakly
